The entries are a selection whose mix differs from that of the whole data set. Records with an inconclusive call do not appear. Calls of active or inactive are those of the source. Calls come from the whole dose curve; as a rule, active = well fitted inhibition curve with a large enough effect; inconclusive = small, poorly fitted or top-dose-only effect; inactive = no such curve, though single readings can be large or run the other way.
Assay: qHTS for Inhibitors of TGF-b: CCL64 Cells Orthogonal Assay for Cherry Picks; note: nearly all actives have a fitted effect of over 65% in size
Settings: CCL64 CAGA-GFP reporter, TGF-b stimulated, GFP fluorescence, 18 h
Description: TGF-b is a main component in the TGF-b signaling pathway which plays diverse roles in cellular and development pathways. TGF-b is the mediated by the transcription factors Smads. Although the Smad-dependent pathway is the primary canonical TGF-b signaling node, TGF-b1 can also activate alternative signaling pathways, including those involving MAPK (ERK, JNK and p38). This interaction may mediate or enhance Smad-dependent responses, or can exert Smad-independent effects. The complexity of this signaling cascade allows the TGF-b superfamily to perform unique, overlapping or redundant functions. […] We aim to identify Smad3-small molecule antagonists using a quantitative high throughput screening (qHTS) approach. […]
Suspensions of trypsinized CCL64 CAGA-GFP cells were dispensed into white, tissue culture-treated, solid 1536-well plates at 5uL/well (1000 cells/well final concentration) in DMEM medium supplemented with 1% FBS. […] The plates were measured on an Acumen eX3 Explorer plate reader for GFP fluorescence (ex488/em500-530). GFP values were calculated by determining the mean GFP fluorescence of individual cells, and compiling these values for each well to determine a total well GFP signal. The %Activity was determined from the corrected fluorescence values. […] Concentration-response curves were fitted to the signals arising from the resulting fluorescence. […]
Potency is the fitted concentration of half-maximal effect.

Row | SMILES | Potency
1 | COc1cc2c(c(OC)c1OC)-c1ccc(OC)c(=O)cc1C(N)CC2 (stereo unspecified) | active: 1300 nM

— PubChem BioAssay AID720536 (National Center for Advancing Translational Sciences (NCATS), 2013)
